Results on one compound are retold here after patent US20210338699A1 (priority 2018, published 2021).

The test system of the data set is WT and ROCK1^−/− mice. The data set can be described thus: Serial doxorubicin administration, DOX-induced CTX in WT and ROCK1−/− mice. On the procedure:
FIG. 1A. Schematic diagram representing serial doxorubicin administration protocol. WT and ROCK1^−/− mice received three serial injections weekly of normal saline (NS) or doxorubicin (DOX) (8 mg/kg). […]
The generation of ROCK1 deficient mice have been previously reported. […] To assess if a deficiency of ROCK1 protects the mice from DOX induced CTX, control (WT) and ROCK1^−/− mice were injected with 8 mg/kg of DOX or normal saline (NS) once weekly for 3 consecutive weeks, for a cumulative dose of 24 mg/kg (FIG. 1A). This treatment is based on the previously described approach, which causes progressive cardiac dysfunction within three weeks after the initial injection, a scenario that mimics early-onset of DOX-induced CTX in humans.
To elucidate the role of ROCK1 in DOX induced CTX, ROCK1^−/− mice were treated with DOX in parallel to the WT mice.
During autophagy, the cytosolic form of microtubule-associated protein 1 light chain 3 (LC3-I) is conjugated to phosphatidylethanolamine to form LC3-II, which is recruited to autophagosomal membranes.

On to `COc1cccc2c1C(=O)c1c(O)c3c(c(O)c1C2=O)C[C@@](O)(C(=O)CO)C[C@@H]3O[C@H]1C[C@H](N)[C@H](O)[C@H](C)O1` [DOX, doxorubicin], for which the “levels of Beclin 1 and AMPK phosphorylation” value (WT hearts with LC3-II accumulation) is recorded as “not accompanied by increased levels”. Besides, where the note is “WT mice, ventricular homogenates”, the “focal adhesion kinase (FAK) phosphorylation” value is “decreased”. In addition, under “WT mice, ventricular homogenates, day 21”, the ROCK1 expression result is recorded as “increased”.
